Laboratory results: patent publication US11266663B2, “Treatment of neuropsychiatric disorders with neurosteroids and analogues thereof” (THE BOARD OF TRUSTEES OF THE UNIVERSITY OF ILLINOIS, priority 2017, dated 2022)
Several values for one entry are separate records, joined by “and”; a condition that tells them apart may be missing. Identical values can stand only once.

Tested on: early and late adolescent SI mice
Assay: Resident-intruder test, aggressive behavior of socially isolated (SI) mice
Format: in vivo, Swiss-Webster mice
Details: for “Non-responders” Early SI mice (%) / “Non-responders” Late SI mice (%): decrease of aggression <=30% vs basal; for EC50 dose, decrease of aggression: i.p., 60 min before test
Source text: Male Swiss-Webster mice (Harlan Breeders) (18-30 g body weight), maintained under a 12-h dark/light cycle with food and water ad libitum were used for all experiments. Mice were housed individually in a cage of dimensions 24 cm×17 cm×12 cm. For these experiments, two mice experimental groups were used for the study of drug effect in different age conditions. The first group was isolated at 21 days (“early adolescent SI mice,” PND 21), while the second group at 45 days (“late adolescent SI mice,” PND 45). The animals were exposed to behavioral testing after 6 weeks of isolation. The vivarium temperature was kept at 24° C. and the humidity near 65%.
[…] All the drugs were dissolved in saline solution containing 0.5% Tween-80 (Sigma Aldrich, St. Louis, Mo., United States), and were injected intraperitoneally (i.p.), 60 min before behavioral tests.
To test aggression, a male intruder mouse of the same strain as the resident mouse, was placed in a resident home cage (24 cm×17 cm×12 cm) and resident-intruder interactions were videotaped for 10 min. Aggressive behavior of SI mice was characterized by an initial pattern of exploratory activity around the intruder, followed by rearing and tail rattle, accompanied within a few seconds by wrestling and/or a violent biting attacks. The total number of wrestling and attacks during the 10 min observation period was measured as previously described (Pinna et al., 2003, 2005), 60 min after drug administration. For every drug studied, SI mice were first exposed to three behavioral sessions, and then the average of basal aggression level for every single SI mouse was calculated; 2 days later, aggression levels following treatment were tested. Treated animals showing a reduction of the number of attacks less than 30% vs. the respective basal control values were considered as “low- to non-responders.”
Results are presented as means±SEMs unless otherwise indicated. Student's t-test, one-way ANOVA and two-way ANOVA repeated measures followed by Bonferroni post hoc test were performed to analyze experimental data; significance was set at p<0.05. EC50 values were calculated from dose-response curves analyzed by the “quantal dose-response: probits test” using the computer program of Tallarida and Murray equipped with a statistical package (Tallarida and Murray, 1987). Statistical comparisons among the different ECsos were performed with the “cohort package software.” (available at cohort.com).

[1] = single dose 0.375 mg/kg (given in mg)
[2] = single dose 0.75 mg/kg (given in mg)
[3] = single dose 1.5 mg/kg (given in mg), 1.5 mg/kg

CNCC[C@H](Oc1ccc(C(F)(F)F)cc1)c1ccccc1 [S-FLX, S-fluoxetine, reference compound]
difference of anti-aggressive effect, late compared with early SI mice (1.5 mg/kg i.p.): +316% | “Non-responders” Early SI mice (%) [1]: 64.3% | “Non-responders” Early SI mice (%) [2]: 53.3% | “Non-responders” Early SI mice (%) [3]: 22.22% and 22.2% | EC50 dose, decrease of aggression (early adolescent SI mice (PND 21)): > 1.5 mg/kg | “Non-responders” Late SI mice (%) [1]: 64.3% | “Non-responders” Late SI mice (%) [2]: 23.1% | “Non-responders” Late SI mice (%) [3]: 11.64% and 11.8% | EC50 dose, decrease of aggression (late adolescent SI mice (PND 45)): 0.85 mg/kg
